The target in assay [1] is T1, GRF4, BiFC fusion (Arabidopsis thaliana) (UniProt P46077).
T1 sequence: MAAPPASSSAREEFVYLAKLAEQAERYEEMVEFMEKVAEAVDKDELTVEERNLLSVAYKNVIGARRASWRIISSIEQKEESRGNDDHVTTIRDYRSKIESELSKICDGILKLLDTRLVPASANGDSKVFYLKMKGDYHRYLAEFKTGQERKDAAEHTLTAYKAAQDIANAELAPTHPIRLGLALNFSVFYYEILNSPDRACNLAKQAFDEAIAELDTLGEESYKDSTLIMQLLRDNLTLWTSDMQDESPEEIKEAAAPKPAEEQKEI
Put plainly: split reporter; BiFC; constructs transiently expressed in Arabidopsis mesophyll protoplasts, confocal imaging.

Assay [2] deals with T2, GRF4, Split-LUC fusion (Arabidopsis thaliana) (UniProt P46077).
T2 sequence: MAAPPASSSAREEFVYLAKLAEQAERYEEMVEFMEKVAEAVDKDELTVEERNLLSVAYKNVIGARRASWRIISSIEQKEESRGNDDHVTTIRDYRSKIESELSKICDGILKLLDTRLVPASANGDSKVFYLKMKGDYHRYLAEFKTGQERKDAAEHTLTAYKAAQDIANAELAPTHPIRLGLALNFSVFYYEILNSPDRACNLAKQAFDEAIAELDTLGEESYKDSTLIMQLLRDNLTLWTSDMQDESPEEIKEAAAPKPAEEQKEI
In words: split reporter; Split-LUC; X-nLUC and X-cLUC constructs co-infiltrated into tobacco leaves, LUC activity with D-luciferin; in Figs. 5a, 6f, 7c with or without IPCK1.

The text below walks through data of PMC11178898, “A clade of receptor-like cytoplasmic kinases and 14-3-3 proteins coordinate inositol hexaphosphate accumulation” (Nature Communications, 2024).

These are yes or no findings as the source states them, for the method shown. Binding seen in cells or lysates may run through a third protein. Some entries that bind do so weakly or less than the wild type. Sequences can lack the tags named with a protein.

B1: IPK1, BiFC fusion (protein, UniProt Q93YN9 1-451)
chain: MEMILEEKDASDWIYRGEGGANLVLAYAGSSPLFVGKVIRIQKARRNDKAIKNANGVVSVLTSDEQHLWRENNELISSPNKEVLEQRYVKNVIIPLLGPKHVDAGVRVSVSKEFLECVDKKVTKQRPLWRVNAANVDTSHDSALILNDHSLFSQGISSGGDCISVEIKPKCGFLPTSRFIGKENMLKTSVSRFKMHQLLKLEYNEISEESEYDPLDLFSGSKESVLEAIKALYSTPQNNFRVFLNGSLILGGSGESTGRTSPEIGYAFEDALKGFIQSEDGHRTECFLQLVSDAVYGSGVLDRLLEIQKLDKLDIEGAIHSYYDLINQPCPICKEGKPLEAELSLHALPLDESLKIVKEYLIAATAKDCSIMISFQSRNAWDSEPSGDYVSLKPTNQTFDYKVHFIDLSLKPLKRMESYYKLDKKIISFYNRKQKAENTAEQIGNSKPSHS
Take B1: in assay [1], the binding result is reported as “binds”.

B2: IPK1, Split-LUC fusion (protein, UniProt Q93YN9 1-451)
chain: MEMILEEKDASDWIYRGEGGANLVLAYAGSSPLFVGKVIRIQKARRNDKAIKNANGVVSVLTSDEQHLWRENNELISSPNKEVLEQRYVKNVIIPLLGPKHVDAGVRVSVSKEFLECVDKKVTKQRPLWRVNAANVDTSHDSALILNDHSLFSQGISSGGDCISVEIKPKCGFLPTSRFIGKENMLKTSVSRFKMHQLLKLEYNEISEESEYDPLDLFSGSKESVLEAIKALYSTPQNNFRVFLNGSLILGGSGESTGRTSPEIGYAFEDALKGFIQSEDGHRTECFLQLVSDAVYGSGVLDRLLEIQKLDKLDIEGAIHSYYDLINQPCPICKEGKPLEAELSLHALPLDESLKIVKEYLIAATAKDCSIMISFQSRNAWDSEPSGDYVSLKPTNQTFDYKVHFIDLSLKPLKRMESYYKLDKKIISFYNRKQKAENTAEQIGNSKPSHS
Consider B2, for which the binding result in assay [2] is listed as “binds”.

B3: PI-PLC2, BiFC fusion (protein, UniProt Q39033 1-581)
chain: MSKQTYKVCFCFRRRFRYTASEAPREIKTIFEKYSENGVMTVDHLHRFLIDVQKQDKATREDAQSIINSASSLLHRNGLHLDAFFKYLFGDNNPPLALHKVHHDMDAPISHYFIFTGHNSYLTGNQLSSDCSEVPIIDALKKGVRVIELDIWPNSNKDDIDVLHGMTLTTPVGLIKCLKAIRAHAFDVSDYPVVVTLEDHLTPDLQSKVAEMVTEIFGEILFTPPVGESLKEFPSPNSLKRRIIISTKPPKEYKEGKDVEVVQKGKDLGDEEVWGREVPSFIQRNKSEAKDDLDGNDDDDDDDDEDKSKINAPPQYKHLIAIHAGKPKGGITECLKVDPDKVRRLSLSEEQLEKAAEKYAKQIVRFTQHNLLRIYPKGTRVTSSNYNPLVGWSHGAQMVAFNMQGYGRSLWLMQGMFRANGGCGYIKKPDLLLKSGSDSDIFDPKATLPVKTTLRVTVYMGEGWYFDFRHTHFDQYSPPDFYTRVGIAGVPGDTVMKKTKTLEDNWIPAWDEVFEFPLTVPELALLRLEVHEYDMSEKDDFGGQTCLPVWELSEGIRAFPLHSRKGEKYKSVKLLVKVEFV
On to B3, for which the binding result in assay [1] is “binds”.

B4: PI-PLC2, Split-LUC fusion (protein, UniProt Q39033 1-581)
chain: MSKQTYKVCFCFRRRFRYTASEAPREIKTIFEKYSENGVMTVDHLHRFLIDVQKQDKATREDAQSIINSASSLLHRNGLHLDAFFKYLFGDNNPPLALHKVHHDMDAPISHYFIFTGHNSYLTGNQLSSDCSEVPIIDALKKGVRVIELDIWPNSNKDDIDVLHGMTLTTPVGLIKCLKAIRAHAFDVSDYPVVVTLEDHLTPDLQSKVAEMVTEIFGEILFTPPVGESLKEFPSPNSLKRRIIISTKPPKEYKEGKDVEVVQKGKDLGDEEVWGREVPSFIQRNKSEAKDDLDGNDDDDDDDDEDKSKINAPPQYKHLIAIHAGKPKGGITECLKVDPDKVRRLSLSEEQLEKAAEKYAKQIVRFTQHNLLRIYPKGTRVTSSNYNPLVGWSHGAQMVAFNMQGYGRSLWLMQGMFRANGGCGYIKKPDLLLKSGSDSDIFDPKATLPVKTTLRVTVYMGEGWYFDFRHTHFDQYSPPDFYTRVGIAGVPGDTVMKKTKTLEDNWIPAWDEVFEFPLTVPELALLRLEVHEYDMSEKDDFGGQTCLPVWELSEGIRAFPLHSRKGEKYKSVKLLVKVEFV
Take B4: the binding entry in assay [2] is recorded as “binds”.
